{"source": "PubChem BioAssay AID1159578 (Peter MacCallum Cancer Centre, 2015)", "assay": "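Knock-downs that alter how fast lymphatic endothelial cells migrate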 (primary screen)", "cell system": "human lymphatic endothelial cells", "knock-down reagent": "siRNA pool against human genes, 40 nM", "timing": "48 h after transfection", "read-out": "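Cells stained with dye and imaged after a scratch; covered wound area and nuclei counted, duplicates averaged, migration set against mock wells and turned into a robust z-score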", "scale": "migration robust z-score: higher = faster migration into the scratch; nuclei per well: higher = more cells in the well", "call rule": "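Pools averaging fewer than 3300 nuclei are never called; remaining pools count as changed when migration robust z lies outside -2 to 2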", "meaning of the calls": "active = migration changed; inactive = no migration change, or too few cells", "note": "In all, the deposit lists about 18,000 reagents; below is a part drawn at random. About 1,030 of all reagents (5.7%) count as active. 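Inactive calls also include pools with fewer than 3300 nuclei, whose migration was not assessed.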 The raw values are shown without normalisation. Further read-outs or replicates are left out here."}
{"gene symbol": "S100A12 (S100 calcium binding protein A12)", "migration robust z-score": 0.5, "migration class with cell-count check": "migration z between -2 and 2; enough cells", "nuclei per well, duplicate mean": 5072, "Outcome": "inactive"}
{"gene symbol": "OR4M1 (olfactory receptor family 4 subfamily M member 1)", "migration robust z-score": -0.52, "migration class with cell-count check": "migration z between -2 and 2; enough cells", "nuclei per well, duplicate mean": 6582, "Outcome": "inactive"}
{"gene symbol": "ADGRF3 (adhesion G protein-coupled receptor F3)", "migration robust z-score": 0.54, "migration class with cell-count check": "migration z between -2 and 2; enough cells", "nuclei per well, duplicate mean": 5588, "Outcome": "inactive"}
{"gene symbol": "CSNK1G2-AS1 (CSNK1G2 antisense RNA 1)", "migration robust z-score": 1.21, "migration class with cell-count check": "migration z between -2 and 2; enough cells", "nuclei per well, duplicate mean": 7110, "Outcome": "inactive"}
{"gene symbol": "ZMAT4 (zinc finger matrin-type 4)", "migration robust z-score": 0.04, "migration class with cell-count check": "migration z between -2 and 2; enough cells", "nuclei per well, duplicate mean": 6616, "Outcome": "inactive"}
{"gene symbol": "CARTPT (CART prepropeptide)", "migration robust z-score": -0.78, "migration class with cell-count check": "migration z between -2 and 2; enough cells", "nuclei per well, duplicate mean": 4956, "Outcome": "inactive"}
{"gene symbol": "ACAD10 (acyl-CoA dehydrogenase family member 10)", "migration robust z-score": -0.64, "migration class with cell-count check": "migration z between -2 and 2; enough cells", "nuclei per well, duplicate mean": 4764, "Outcome": "inactive"}
{"gene symbol": "UBR2 (ubiquitin protein ligase E3 component n-recognin 2)", "migration robust z-score": -0.6, "migration class with cell-count check": "migration z between -2 and 2; enough cells", "nuclei per well, duplicate mean": 5680, "Outcome": "inactive"}
{"gene symbol": "ITGAX (integrin subunit alpha X)", "migration robust z-score": 0.36, "migration class with cell-count check": "migration z between -2 and 2; enough cells", "nuclei per well, duplicate mean": 5843, "Outcome": "inactive"}
{"gene symbol": "PDLIM5 (PDZ and LIM domain 5)", "migration robust z-score": 1.15, "migration class with cell-count check": "migration z between -2 and 2; enough cells", "nuclei per well, duplicate mean": 5816, "Outcome": "inactive"}
{"gene symbol": "IL13RA2 (interleukin 13 receptor subunit alpha 2)", "migration robust z-score": 0.99, "migration class with cell-count check": "migration z between -2 and 2; enough cells", "nuclei per well, duplicate mean": 5478, "Outcome": "inactive"}
{"gene symbol": "ATP1A1 (ATPase Na+/K+ transporting subunit alpha 1)", "migration robust z-score": -0.38, "migration class with cell-count check": "migration z between -2 and 2; enough cells", "nuclei per well, duplicate mean": 4602, "Outcome": "inactive"}
{"gene symbol": "TPI1 (triosephosphate isomerase 1)", "migration robust z-score": 0.1, "migration class with cell-count check": "migration z between -2 and 2; enough cells", "nuclei per well, duplicate mean": 7870, "Outcome": "inactive"}
{"gene symbol": "C2 (complement C2)", "migration robust z-score": -1.98, "migration class with cell-count check": "migration z between -2 and 2; enough cells", "nuclei per well, duplicate mean": 4182, "Outcome": "inactive"}
{"gene symbol": "FAM170A (family with sequence similarity 170 member A)", "migration robust z-score": 0.6, "migration class with cell-count check": "migration z between -2 and 2; enough cells", "nuclei per well, duplicate mean": 5204, "Outcome": "inactive"}
{"gene symbol": "NOVA1 (NOVA alternative splicing regulator 1)", "migration robust z-score": -1.14, "migration class with cell-count check": "migration z between -2 and 2; enough cells", "nuclei per well, duplicate mean": 5778, "Outcome": "inactive"}
{"gene symbol": "FBXO28 (F-box protein 28)", "migration robust z-score": 0.7, "migration class with cell-count check": "migration z between -2 and 2; enough cells", "nuclei per well, duplicate mean": 5417, "Outcome": "inactive"}
{"gene symbol": "HNMT (histamine N-methyltransferase)", "migration robust z-score": -1.58, "migration class with cell-count check": "migration z between -2 and 2; enough cells", "nuclei per well, duplicate mean": 5702, "Outcome": "inactive"}
{"gene symbol": "C1orf105 (chromosome 1 open reading frame 105)", "migration robust z-score": 0.19, "migration class with cell-count check": "migration z between -2 and 2; enough cells", "nuclei per well, duplicate mean": 5289, "Outcome": "inactive"}
{"gene symbol": "TP53I13 (tumor protein p53 inducible protein 13)", "migration robust z-score": -0.38, "migration class with cell-count check": "migration z between -2 and 2; enough cells", "nuclei per well, duplicate mean": 5537, "Outcome": "inactive"}
{"gene symbol": "PRSS2 (serine protease 2)", "migration robust z-score": 0, "migration class with cell-count check": "migration z between -2 and 2; enough cells", "nuclei per well, duplicate mean": 5186, "Outcome": "inactive"}

No new results follow: an excerpt of the list.
{"gene symbol": "NOVA1 (NOVA alternative splicing regulator 1)", "migration robust z-score": -1.14, "migration class with cell-count check": "migration z between -2 and 2; enough cells", "nuclei per well, duplicate mean": 5778, "Outcome": "inactive"}
{"gene symbol": "FBXO28 (F-box protein 28)", "migration robust z-score": 0.7, "migration class with cell-count check": "migration z between -2 and 2; enough cells", "nuclei per well, duplicate mean": 5417, "Outcome": "inactive"}
{"gene symbol": "HNMT (histamine N-methyltransferase)", "migration robust z-score": -1.58, "migration class with cell-count check": "migration z between -2 and 2; enough cells", "nuclei per well, duplicate mean": 5702, "Outcome": "inactive"}
